# PubChem BioAssay AID686943, Drosophila RNAi Screening Center | 2013
# Test: 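Fly genes whose loss alters ERK activation after insulin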 (primary screen)
# Cells: Drosophila S2R+ haemocyte-like cells expressing YFP-tagged ERK (Rolled)
# Reagents: long dsRNA against Drosophila genes
# Challenge: insulin stimulation versus unstimulated cells; dose and duration not given
# Measurement: 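Antibody staining for doubly phosphorylated ERK divided by ERK-YFP signal, as plate z-scores, in insulin-treated and untreated cells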
# Scale: replicate 1, z-score of dpERK with insulin and replicate 2, z-score of dpERK with insulin: higher = more active ERK per ERK-YFP after insulin; replicate 1, z-score of dpERK under basal conditions: higher = more basal active ERK per ERK-YFP; replicate 1, z-score of ERK-YFP with insulin: higher = more YFP-tagged ERK signal
# The screen tested about 23,000 reagents; shown is a random part of those that have a named target and a result. 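Extra replicates exist only for a retested subset of genes; insulin dose and duration not given; both raised and lowered dpERK matter.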 Names joined by + are all predicted targets of the reagent. No sequences are given here. Not given: the amount of reagent, the time to read-out.
Gene,amplicon,"replicate 1, z-score of dpERK with insulin","replicate 2, z-score of dpERK with insulin","replicate 1, z-score of dpERK under basal conditions","replicate 1, z-score of ERK-YFP with insulin"
escl,DRSC02828,0.9,1.41,1.48,0.14
CG32086,DRSC10586,0.01,0.1,0.01,0.37
Fbw5 (F-box and WD repeat domain containing 5),DRSC03146,0.26,0.02,-0.1,-0.33
Neurl4 (Neuralized E3 ubiquitin protein ligase 4),DRSC10638,0.54,0.36,-0.18,-0.17
Cmpk (Cytidine/uridine monophosphate kinase 1),DRSC16643,0.4,0.59,-0.17,-0.36
Brms1 (BRMS1 transcriptional repressor),DRSC19896,0.82,1.08,-1.37,1.28
CG5390,DRSC02855,1.36,0.97,0.48,-0.14
Spn42De (Serpin 42De),DRSC05011,-0.42,0.3,-0.44,-0.1
pea (peanuts),DRSC07120,2.73,1.07,-0.94,-1.11
NimC2 (Nimrod C2),DRSC01881,-0.59,-0.39,-0.13,0.01
CG13869 + CG11099,DRSC06428,0.59,0.01,1.44,-0.59
Men-b (Malic enzyme b),DRSC16736,-0.05,-0.39,-0.04,0.09
CG3323,DRSC18303,-0.1,-0.32,0.39,0.24
CG15373,DRSC19663,-0.59,0.09,-0.49,0.65
Blimp-1,DRSC10496,0.9,0.55,-0.32,0.19
CG18131,DRSC00517,-2.79,-5.94,-2.14,-1.88
DIP2 (DISCO Interacting Protein 2),DRSC08582,0.4,0.86,0.84,0.53
CG12984,DRSC11693,0.57,0.01,0.23,0.05
CG14860,DRSC14983,1.08,0.28,-0.01,0.26
Megf8 (Multiple EGF like domains 8),DRSC03058,0.41,0.48,-0.51,-0.69
pim (pimples),DRSC03591,-1.71,-0.65,-1.32,-3.33
CG7378,DRSC20041,-0.15,-0.27,-0.48,0.14
CG18605,DRSC06772,1.49,1.21,0.62,-0.28
RecQ4 (RecQ4 helicase),DRSC11265,0.27,0.04,-0.96,-0.37
Drsl1 (Drosomycin-like 1),DRSC22490,-0.24,-0.13,1.28,1.07
CG6656,DRSC16085,0.2,-0.45,-0.57,1.06
CG15011,DRSC08464,-1.44,-1.51,0.3,0.11
Pgant2 (Polypeptide N-Acetylgalactosaminyltransferase 2),DRSC00587,-0.04,0.65,-0.5,1.51
CG33966,DRSC08256,-0.13,-0.6,-0.19,-0.08
CG33127,DRSC00011,0.1,1.57,0.39,0.49
CG14262,DRSC14757,-0.42,-0.95,0.36,0.74
modSP (modular serine protease),DRSC16726,0.76,-1.46,-0.94,-0.13
modSP (modular serine protease),DRSC16857,0.53,-1.48,-0.49,0.04
modSP (modular serine protease),DRSC21489,-0.83,-0.01,0.84,-0.04
LeuRS (Leucyl-tRNA synthetase),DRSC00581,1.53,0.59,-0.84,-0.36
isoQC (iso Glutaminyl cyclase),DRSC11790,0.4,0.46,-0.21,0.03
CG15117,DRSC06539,-0.8,-1.29,-3.1,1.59
shams,DRSC16590,-0.49,0.19,-0.07,0.38
CG7550,DRSC10875,0.01,0.31,-0.01,0.22

Copied from the list.
Entry of CG14262 [DRSC14757] under “replicate 1, z-score of dpERK under basal conditions”: 0.36
pim (pimples) [DRSC03591], replicate 1, z-score of dpERK with insulin = -1.71
For “replicate 1, z-score of dpERK under basal conditions”, Fbw5 (F-box and WD repeat domain containing 5) [DRSC03146] reads -0.1
